Values of other authors, collected in patent US20010016593A1, “Element giving rapid release of nicotine for transmucosal administration” (priority 1999, published 2001).
Where two headings read alike, the source gives them in different places.

Conditions: scale 0 to 4, cited from earlier work

CN1CCCC1c1cccnc1 (centres unmarked) [nicotine]
average liking rating (intravenous injection of 1.5 mg): 0.8
average liking rating (intravenous injection of 3 mg): 2.6
